# No constants are given. Whether binding was seen depends on the method and setting. Binding seen in cells or lysates may run through a third protein. Here binding means that the protein was enriched with, or labelled near, the bait; the list need not be complete.
# Target: T1, Transmembrane and tetratricopeptide repeat (TPR) repeat-containing protein 3 (TMTC3) (human (endogenous in KYSE450, KYSE410, KYSE180)) (UniProt Q6ZXV5)
# T1 sequence: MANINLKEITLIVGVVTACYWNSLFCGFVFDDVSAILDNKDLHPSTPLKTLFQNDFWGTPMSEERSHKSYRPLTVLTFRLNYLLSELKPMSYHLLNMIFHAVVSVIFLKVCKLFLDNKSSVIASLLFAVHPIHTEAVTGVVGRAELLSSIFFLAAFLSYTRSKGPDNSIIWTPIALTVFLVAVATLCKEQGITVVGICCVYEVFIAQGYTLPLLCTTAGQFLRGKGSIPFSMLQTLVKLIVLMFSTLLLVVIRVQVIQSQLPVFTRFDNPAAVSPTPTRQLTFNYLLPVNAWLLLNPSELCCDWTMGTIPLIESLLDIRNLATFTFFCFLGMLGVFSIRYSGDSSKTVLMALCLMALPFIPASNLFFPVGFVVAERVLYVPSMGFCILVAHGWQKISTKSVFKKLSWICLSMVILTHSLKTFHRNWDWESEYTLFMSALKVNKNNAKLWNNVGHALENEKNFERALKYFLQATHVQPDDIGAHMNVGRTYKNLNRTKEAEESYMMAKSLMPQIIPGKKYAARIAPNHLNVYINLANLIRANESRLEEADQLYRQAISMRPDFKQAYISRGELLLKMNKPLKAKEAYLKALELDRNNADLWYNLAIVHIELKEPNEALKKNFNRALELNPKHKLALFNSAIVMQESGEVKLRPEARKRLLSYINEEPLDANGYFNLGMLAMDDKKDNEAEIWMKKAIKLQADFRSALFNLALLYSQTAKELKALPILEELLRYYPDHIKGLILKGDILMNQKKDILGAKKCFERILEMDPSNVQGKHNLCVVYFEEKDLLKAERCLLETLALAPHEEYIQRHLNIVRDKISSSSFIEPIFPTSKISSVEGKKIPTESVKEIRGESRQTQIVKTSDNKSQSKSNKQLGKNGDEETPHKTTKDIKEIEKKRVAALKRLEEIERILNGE
# Experiment: affinity purification with mass spectrometry; immunoprecipitation with TMTC3 antibody from KYSE450 cells; silver-stained SDS-PAGE; differential band around 55 kDa between IgG and TMTC3 group analysed by mass spectrometry
substance,measurement,value
inosine-5'-monophosphate dehydrogenase 2 (IMPDH2) (from UniProt P12268 1-514) (enzyme),binding,binds

# — PMC10521530
